Measured values taken from publication PMC9892057.
These are yes or no findings as the source states them, for the method shown. Binding seen in cells or lysates may run through a third protein. Some binding calls cover weakened binding; strength is not graded here.

Amino acid sequences for entries named in this document (tags omitted).
UniProt P40337: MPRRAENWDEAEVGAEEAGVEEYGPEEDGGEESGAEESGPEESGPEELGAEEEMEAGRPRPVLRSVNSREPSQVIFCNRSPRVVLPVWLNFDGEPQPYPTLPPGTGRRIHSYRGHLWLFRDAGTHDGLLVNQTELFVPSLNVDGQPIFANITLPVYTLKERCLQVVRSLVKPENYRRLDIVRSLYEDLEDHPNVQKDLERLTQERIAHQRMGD
UniProt Q00987: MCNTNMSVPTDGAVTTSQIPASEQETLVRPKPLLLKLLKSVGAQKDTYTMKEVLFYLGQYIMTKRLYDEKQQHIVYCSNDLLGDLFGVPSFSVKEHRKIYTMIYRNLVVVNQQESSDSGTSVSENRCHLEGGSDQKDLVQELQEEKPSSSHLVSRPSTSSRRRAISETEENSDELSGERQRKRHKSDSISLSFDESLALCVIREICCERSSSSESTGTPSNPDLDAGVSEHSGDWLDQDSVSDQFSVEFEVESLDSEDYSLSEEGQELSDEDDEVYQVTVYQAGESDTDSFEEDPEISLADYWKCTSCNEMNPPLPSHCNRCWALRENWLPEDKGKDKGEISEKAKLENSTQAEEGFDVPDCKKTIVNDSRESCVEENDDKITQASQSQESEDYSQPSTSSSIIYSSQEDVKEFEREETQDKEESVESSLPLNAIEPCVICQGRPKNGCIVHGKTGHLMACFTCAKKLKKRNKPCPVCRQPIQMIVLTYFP

Target: von Hippel-Lindau protein (pVHL) (human (endogenous in Y79)) (UniProt P40337)
Assay: co-IP; Y79 cells transfected with Flag-MDM2 plasmid or empty vector for 24 h, lysed in IP Lysis Buffer with protease inhibitors; pre-cleared with Dynabeads Protein G; endogenous pVHL precipitated with anti-pVHL antibody or control IgG on Dynabeads, 1 h at room temperature; washed 3 times with PBST; MDM2 detected by western blot

- binding: binds
Substance: Flag-tagged human MDM2 (Mouse double minute 2 homolog) (from UniProt Q00987 1-491)
